From EP0115929A1, “Novel organic platinum complex and process for the preparation thereof” (priority 1983, dated 1984) come the findings set out here.

One series concerns Leukemia L-1210. Briefly: Effect on life span of mice implanted with Leukemia L-1210 (Method B). It counts as in vivo. The following applies: ratio OD/ILS30; footnote *4 in image. The procedure: […] test compound was begun 24 hours after the inoculation of the leukemic cells and performed once a day for 5 days. The survival days of the treated mice were observed.

The test system of series [1] is Ehrlich ascites carcinoma. The series is described as follows: Preventive effect against the growth of Ehrlich ascites carcinoma (Method A). The following applies: footnote *5 in image; fits MTD/MED. It counts as in vivo, mice. The text has this: It may be useful to prolong the survival time of warm-blood .animals, including human,.afflicted with tumors and/or minimize the growth of tumors in said animals. […] The compound of the present invention is also useful for the treatment of various other tumors such as prostate tumor, orchis tumor, ovary tumor, malignant lymphoma, leukemia, breast cancer and the like.

Regarding “cis-Malonato(2-aminomethylpyridine) platinum (II) [Compound 2]”, the “Therapeutic index (OD/ILS30)” value with Leukemia L-1210 turned out to be 55.6. In series [1], this substance returned a Thera-peutic index of 32.
For “cis-Dioxamato(2-aminomethylpyridine) platinum (II) [Compound 3]”, in the series on Leukemia L-1210, the “Therapeutic index (OD/ILS30)” value is listed as 60.6.
As to “cis-Oxalato(2-aminomethylpyridine) platinum (II) [Compound 1]”, in the series with Leukemia L-1210, the “Therapeutic index (OD/ILS30)” value is 76.9. The substance further came in with a Thera-peutic index in series [1] of 32.
